PubChem BioAssay AID1259308 – NCATS, 2017

- Aim: 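Candidate targets for better recombinant protein yield in mammalian cells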 (primary screen)
- Cell system: human HEK293 embryonic kidney cells stably expressing firefly luciferase (HEK-CMV-Luc2-Hygro)
- Reagents: single siRNA against human genes, 0.8 pmol siRNA per well
- Duration: 72 h
- Read-out: 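Reporter luminescence and viable-cell signal on separate replicate plates, given as percent of non-targeting control and median/MAD z-scores, plus per-cell luciferase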
- Direction: total luciferase, z-score and total luciferase, % of control: higher = more reporter protein produced; luciferase per cell, z-score: higher = more reporter output per viable cell; viable cells, % of control: higher = more viable cells
- Rule for the call: 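Active when the median/MAD z-score for overall luciferase is greater than 3; a gene was taken forward for validation with new siRNAs if at least two of its three siRNAs passed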
- Meaning of the calls: active = raised luciferase; inactive = no rise
The deposit covers about 59,000 reagents; this is a random part of them. About 1,510 of all reagents (2.6%) were called active. 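Calls use total luciferase alone and ignore viability, so some active siRNAs may act by altering cell number.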 Entries without a mark were called inactive. The numbers tell different reagents against one gene apart. Reagent sequences are not shown.

target gene,siRNA no.,"total luciferase, z-score","total luciferase, % of control","luciferase per cell, z-score","viable cells, % of control"
ELF1,1,0.852,98.8,0.407,99.2
ELF1,2,0.793,97.7,0.482,96.1
ELF1,3,-1.3,56.1,-0.0881,64.2
SYK,1,-0.763,66.7,-0.946,95.6
SYK,2,0.0233,82.4,0.0715,90.3
SYK,3,-1.35,55,-2.37,115
FAM20A,1,-0.17,78.5,-0.115,90.4
FAM20A,2,0.0217,82.3,-0.191,96.7
FAM20A,3,-0.355,74.8,-0.21,88.3
EMB,1,0.807,97.9,1.72,69.6
EMB,2,-0.279,76.3,0.985,65.8
EMB,3,-0.926,63.5,-1.33,101
C12orf71,1,-0.361,74.7,-0.119,86.2
C12orf71,2,0.315,88.2,0.396,88.7
C12orf71,3,-0.254,76.8,-0.625,101
CCDC54,1,-0.0908,80.1,1.38,62.2
CCDC54,2,-1.6,50.2,-0.853,70.2
CCDC54,3,0.166,85.2,0.392,85.9
CTNND2,1,-0.925,63.5,-1.6,108
CTNND2,2,-0.482,72.3,-0.699,97.1
CTNND2,3,-1.58,50.5,-1.29,79.2
CFAP90,1,-1.06,60.9,-0.236,72.4
CFAP90,2,-0.78,66.4,-0.887,93.7
CFAP90,3,-0.212,77.7,0.375,78.6
HSPB8,1,0.85,98.8,2.56,56.2
HSPB8,2,0.349,88.8,0.724,82
HSPB8,3,0.279,87.4,0.709,81.1
UIMC1,1,0.406,90,-0.0773,103
UIMC1,2,1.52,112,1.2,91.3
UIMC1,3,0.0817,83.5,-0.505,107
ZBTB11,1,0.279,87.4,0.205,92.6
ZBTB11,2,2.78,137,2.48,79.8
ZBTB11,3,-0.24,77.1,0.238,80.9
H2AC12,1,-0.308,75.8,0.642,71.5
H2AC12,2,2.25,127,2.64,70.6
H2AC12,3,-0.782,66.3,-0.914,94.3
GHRHR,1,2.24,126,1.32,99.8
GHRHR,2,0.15,84.9,-0.308,103
GHRHR,3,0.858,98.9,0.241,104
